Source: PMC7364817

T1: FLAG-tagged SMCR8 (Smith-Magenis Syndrome Chromosome Region, Candidate 8) (UniProt Q8TEV9)
T1 sequence: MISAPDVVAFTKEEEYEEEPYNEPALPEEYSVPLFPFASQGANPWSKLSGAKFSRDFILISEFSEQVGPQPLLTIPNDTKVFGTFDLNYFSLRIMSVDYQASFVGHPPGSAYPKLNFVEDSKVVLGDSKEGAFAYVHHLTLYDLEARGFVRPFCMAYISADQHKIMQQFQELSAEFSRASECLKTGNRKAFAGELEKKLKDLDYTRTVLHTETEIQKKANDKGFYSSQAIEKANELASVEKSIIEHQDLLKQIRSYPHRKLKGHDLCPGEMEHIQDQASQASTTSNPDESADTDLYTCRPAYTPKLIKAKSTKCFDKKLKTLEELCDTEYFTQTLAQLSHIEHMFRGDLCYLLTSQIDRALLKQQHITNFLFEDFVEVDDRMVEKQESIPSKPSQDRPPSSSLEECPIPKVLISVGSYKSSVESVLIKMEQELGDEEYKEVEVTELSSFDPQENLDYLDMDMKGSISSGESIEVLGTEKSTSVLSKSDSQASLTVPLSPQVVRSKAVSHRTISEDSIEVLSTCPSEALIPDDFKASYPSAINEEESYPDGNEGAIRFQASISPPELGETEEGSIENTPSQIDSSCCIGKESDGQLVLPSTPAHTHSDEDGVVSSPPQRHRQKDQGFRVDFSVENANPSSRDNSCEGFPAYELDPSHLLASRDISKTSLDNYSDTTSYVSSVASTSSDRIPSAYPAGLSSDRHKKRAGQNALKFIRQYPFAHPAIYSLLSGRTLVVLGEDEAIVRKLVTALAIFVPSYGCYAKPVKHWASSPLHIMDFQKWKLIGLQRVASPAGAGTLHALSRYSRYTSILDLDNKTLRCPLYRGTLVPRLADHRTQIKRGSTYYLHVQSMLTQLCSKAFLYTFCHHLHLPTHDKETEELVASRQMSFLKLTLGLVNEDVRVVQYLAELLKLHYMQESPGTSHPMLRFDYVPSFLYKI

B1: ADAR (protein, UniProt P55265 1-1226)
chain: MNPRQGYSLSGYYTHPFQGYEHRQLRYQQPGPGSSPSSFLLKQIEFLKGQLPEAPVIGKQTPSLPPSLPGLRPRFPVLLASSTRGRQVDIRGVPRGVHLRSQGLQRGFQHPSPRGRSLPQRGVDCLSSHFQELSIYQDQEQRILKFLEELGEGKATTAHDLSGKLGTPKKEINRVLYSLAKKGKLQKEAGTPPLWKIAVSTQAWNQHSGVVRPDGHSQGAPNSDPSLEPEDRNSTSVSEDLLEPFIAVSAQAWNQHSGVVRPDSHSQGSPNSDPGLEPEDSNSTSALEDPLEFLDMAEIKEKICDYLFNVSDSSALNLAKNIGLTKARDINAVLIDMERQGDVYRQGTTPPIWHLTDKKRERMQIKRNTNSVPETAPAAIPETKRNAEFLTCNIPTSNASNNMVTTEKVENGQEPVIKLENRQEARPEPARLKPPVHYNGPSKAGYVDFENGQWATDDIPDDLNSIRAAPGEFRAIMEMPSFYSHGLPRCSPYKKLTECQLKNPISGLLEYAQFASQTCEFNMIEQSGPPHEPRFKFQVVINGREFPPAEAGSKKVAKQDAAMKAMTILLEEAKAKDSGKSEESSHYSTEKESEKTAESQTPTPSATSFFSGKSPVTTLLECMHKLGNSCEFRLLSKEGPAHEPKFQYCVAVGAQTFPSVSAPSKKVAKQMAAEEAMKALHGEATNSMASDNQPEGMISESLDNLESMMPNKVRKIGELVRYLNTNPVGGLLEYARSHGFAAEFKLVDQSGPPHEPKFVYQAKVGGRWFPAVCAHSKKQGKQEAADAALRVLIGENEKAERMGFTEVTPVTGASLRRTMLLLSRSPEAQPKTLPLTGSTFHDQIAMLSHRCFNTLTNSFQPSLLGRKILAAIIMKKDSEDMGVVVSLGTGNRCVKGDSLSLKGETVNDCHAEIISRRGFIRFLYSELMKYNSQTAKDSIFEPAKGGEKLQIKKTVSFHLYISTAPCGDGALFDKSCSDRAMESTESRHYPVFENPKQGKLRTKVENGEGTIPVESSDIVPTWDGIRLGERLRTMSCSDKILRWNVLGLQGALLTHFLQPIYLKSVTLGYLFSQGHLTRAICCRVTRDGSAFEDGLRHPFIVNHPKVGRVSIYDSKRQSGKTKETSVNWCLADGYDLEILDGTRGTVDGPRNELSRVSKKNIFLLFKKLCSFRYRRDLLRLSYGEAKKAARDYETAKNYFKKGLKDMGYGNWISKPQEEKNFYLCPV
B2: ADNP (protein, UniProt Q9H2P0 1-1102)
chain: MFQLPVNNLGSLRKARKTVKKILSDIGLEYCKEHIEDFKQFEPNDFYLKNTTWEDVGLWDPSLTKNQDYRTKPFCCSACPFSSKFFSAYKSHFRNVHSEDFENRILLNCPYCTFNADKKTLETHIKIFHAPNASAPSSSLSTFKDKNKNDGLKPKQADSVEQAVYYCKKCTYRDPLYEIVRKHIYREHFQHVAAPYIAKAGEKSLNGAVPLGSNAREESSIHCKRCLFMPKSYEALVQHVIEDHERIGYQVTAMIGHTNVVVPRSKPLMLIAPKPQDKKSMGLPPRIGSLASGNVRSLPSQQMVNRLSIPKPNLNSTGVNMMSSVHLQQNNYGVKSVGQGYSVGQSMRLGLGGNAPVSIPQQSQSVKQLLPSGNGRSYGLGSEQRSQAPARYSLQSANASSLSSGQLKSPSLSQSQASRVLGQSSSKPAAAATGPPPGNTSSTQKWKICTICNELFPENVYSVHFEKEHKAEKVPAVANYIMKIHNFTSKCLYCNRYLPTDTLLNHMLIHGLSCPYCRSTFNDVEKMAAHMRMVHIDEEMGPKTDSTLSFDLTLQQGSHTNIHLLVTTYNLRDAPAESVAYHAQNNPPVPPKPQPKVQEKADIPVKSSPQAAVPYKKDVGKTLCPLCFSILKGPISDALAHHLRERHQVIQTVHPVEKKLTYKCIHCLGVYTSNMTASTITLHLVHCRGVGKTQNGQDKTNAPSRLNQSPSLAPVKRTYEQMEFPLLKKRKLDDDSDSPSFFEEKPEEPVVLALDPKGHEDDSYEARKSFLTKYFNKQPYPTRREIEKLAASLWLWKSDIASHFSNKRKKCVRDCEKYKPGVLLGFNMKELNKVKHEMDFDAEWLFENHDEKDSRVNASKTADKKLNLGKEDDSSSDSFENLEEESNESGSPFDPVFEVEPKISNDNPEEHVLKVIPEDASESEEKLDQKEDGSKYETIHLTEEPTKLMHNASDSEVDQDDVVEWKDGASPSESGPGSQQVSDFEDNTCEMKPGTWSDESSQSEDARSSKPAAKKKATMQGDREQLKWKNSSYGKVEGFWSKDQSQWKNASENDERLSNPQIEWQNSTIDSEDGEQFDNMTDGVAEPMHGSLAGVKLSSQQA
B3: SPG20 (protein, UniProt Q8N0X7 1-666)
chain: MEQEPQNGEPAEIKIIREAYKKAFLFVNKGLNTDELGQKEEAKNYYKQGIGHLLRGISISSKESEHTGPGWESARQMQQKMKETLQNVRTRLEILEKGLATSLQNDLQEVPKLYPEFPPKDMCEKLPEPQSFSSAPQHAEVNGNTSTPSAGAVAAPASLSLPSQSCPAEAPPAYTPQAAEGHYTVSYGTDSGEFSSVGEEFYRNHSQPPPLETLGLDADELILIPNGVQIFFVNPAGEVSAPSYPGYLRIVRFLDNSLDTVLNRPPGFLQVCDWLYPLVPDRSPVLKCTAGAYMFPDTMLQAAGCFVGVVLSSELPEDDRELFEDLLRQMSDLRLQANWNRAEEENEFQIPGRTRPSSDQLKEASGTDVKQLDQGNKDVRHKGKRGKRAKDTSSEEVNLSHIVPCEPVPEEKPKELPEWSEKVAHNILSGASWVSWGLVKGAEITGKAIQKGASKLRERIQPEEKPVEVSPAVTKGLYIAKQATGGAAKVSQFLVDGVCTVANCVGKELAPHVKKHGSKLVPESLKKDKDGKSPLDGAMVVAASSVQGFSTVWQGLECAAKCIVNNVSAETVQTVRYKYGYNAGEATHHAVDSAVNVGVTAYNINNIGIKAMVKKTATQTGHTLLEDYQIVDNSQRENQEGAANVNVRGEKDEQTKEVKEAKKKDK
B4: FIG4 (protein, UniProt Q92562 1-907)
chain: MPTAAAPIISSVQKLVLYETRARYFLVGSNNAETKYRVLKIDRTEPKDLVIIDDRHVYTQQEVRELLGRLDLGNRTKMGQKGSSGLFRAVSAFGVVGFVRFLEGYYIVLITKRRKMADIGGHAIYKVEDTNMIYIPNDSVRVTHPDEARYLRIFQNVDLSSNFYFSYSYDLSHSLQYNLTVLRMPLEMLKSEMTQNRQESFDIFEDEGLITQGGSGVFGICSEPYMKYVWNGELLDIIKSTVHRDWLLYIIHGFCGQSKLLIYGRPVYVTLIARRSSKFAGTRFLKRGANCEGDVANEVETEQILCDASVMSFTAGSYSSYVQVRGSVPLYWSQDISTMMPKPPITLDQADPFAHVAALHFDQMFQRFGSPIIILNLVKEREKRKHERILSEELVAAVTYLNQFLPPEHTIVYIPWDMAKYTKSKLCNVLDRLNVIAESVVKKTGFFVNRPDSYCSILRPDEKWNELGGCVIPTGRLQTGILRTNCVDCLDRTNTAQFMVGKCALAYQLYSLGLIDKPNLQFDTDAVRLFEELYEDHGDTLSLQYGGSQLVHRVKTYRKIAPWTQHSKDIMQTLSRYYSNAFSDADRQDSINLFLGVFHPTEGKPHLWELPTDFYLHHKNTMRLLPTRRSYTYWWTPEVIKHLPLPYDEVICAVNLKKLIVKKFHKYEEEIDIHNEFFRPYELSSFDDTFCLAMTSSARDFMPKTVGIDPSPFTVRKPDETGKSVLGNKSNREEAVLQRKTAASAPPPPSEEAVSSSSEDDSGTDREEEGSVSQRSTPVKMTDAGDSAKVTENVVQPMKELYGINLSDGLSEEDFSIYSRFVQLGQSQHKQDKNSQQPCSRCSDGVIKLTPISAFSQDNIYEVQPPRVDRKSTEIFQAHIQASQGIMQPLGKEDSSMYREYIRNRYL
B5: MATR3 (protein, UniProt P43243 1-847)
chain: MSKSFQQSSLSRDSQGHGRDLSAAGIGLLAAATQSLSMPASLGRMNQGTARLASLMNLGMSSSLNQQGAHSALSSASTSSHNLQSIFNIGSRGPLPLSSQHRGDADQASNILASFGLSARDLDELSRYPEDKITPENLPQILLQLKRRRTEEGPTLSYGRDGRSATREPPYRVPRDDWEEKRHFRRDSFDDRGPSLNPVLDYDHGSRSQESGYYDRMDYEDDRLRDGERCRDDSFFGETSHNYHKFDSEYERMGRGPGPLQERSLFEKKRGAPPSSNIEDFHGLLPKGYPHLCSICDLPVHSNKEWSQHINGASHSRRCQLLLEIYPEWNPDNDTGHTMGDPFMLQQSTNPAPGILGPPPPSFHLGGPAVGPRGNLGAGNGNLQGPRHMQKGRVETSRVVHIMDFQRGKNLRYQLLQLVEPFGVISNHLILNKINEAFIEMATTEDAQAAVDYYTTTPALVFGKPVRVHLSQKYKRIKKPEGKPDQKFDQKQELGRVIHLSNLPHSGYSDSAVLKLAEPYGKIKNYILMRMKSQAFIEMETREDAMAMVDHCLKKALWFQGRCVKVDLSEKYKKLVLRIPNRGIDLLKKDKSRKRSYSPDGKESPSDKKSKTDGSQKTESSTEGKEQEEKSGEDGEKDTKDDQTEQEPNMLLESEDELLVDEEEAAALLESGSSVGDETDLANLGDVASDGKKEPSDKAVKKDGSASAAAKKKLKKVDKIEELDQENEAALENGIKNEENTEPGAESSENADDPNKDTSENADGQSDENKDDYTIPDEYRIGPYQPNVPVGIDYVIPKTGFYCKLCSLFYTNEEVAKNTHCSSLPHYQKLKKFLNKLAEERRQKKET
B6: makorin ring finger protein 2, E3 ubiquitin ligase (protein, UniProt Q9H000 1-416)
chain: MSTKQITCRYFMHGVCREGSQCLFSHDLANSKPSTICKYYQKGYCAYGTRCRYDHTRPSAAAGGAVGTMAHSVPSPAFHSPHPPSEVTASIVKTNSHEPGKREKRTLVLRDRNLSGMAERKTQPSMVSNPGSCSDPQPSPEMKPHSYLDAIRSGLDDVEASSSYSNEQQLCPYAAAGECRFGDACVYLHGEVCEICRLQVLHPFDPEQRKAHEKICMLTFEHEMEKAFAFQASQDKVCSICMEVILEKASASERRFGILSNCNHTYCLSCIRQWRCAKQFENPIIKSCPECRVISEFVIPSVYWVEDQNKKNELIEAFKQGMGKKACKYFEQGKGTCPFGSKCLYRHAYPDGRLAEPEKPRKQLSSQGTVRFFNSVRLWDFIENRESRHVPNNEDVDMTELGDLFMHLSGVESSEP

molecular target: T1, FLAG-tagged SMCR8 (Smith-Magenis Syndrome Chromosome Region, Candidate 8); assay: affinity purification with mass spectrometry; FL-SMCR8, C9orf72-FL or empty vector transfected in HEK 293T; α-FLAG agarose IP from whole cell lysates with or without RNase; LC-MS/MS; hits with three or more spectra and not detected in vector only control

binding, binds:
B1
B2
B3
B4
B5
B6

Results are given in words; binding and its absence hold for the method and conditions named. In cells and extracts the contact can be indirect. These calls come from enrichment with a bait or labelling near it, and not all partners need be listed. Where a sequence is shown, tags or fusion partners need not be part of it.
